# Screening data, single-dose tests

By UniProt entry, the sequences of proteins in these tests, tags left out. Residues count along the entry.
UniProt P9WPC5, whole entry: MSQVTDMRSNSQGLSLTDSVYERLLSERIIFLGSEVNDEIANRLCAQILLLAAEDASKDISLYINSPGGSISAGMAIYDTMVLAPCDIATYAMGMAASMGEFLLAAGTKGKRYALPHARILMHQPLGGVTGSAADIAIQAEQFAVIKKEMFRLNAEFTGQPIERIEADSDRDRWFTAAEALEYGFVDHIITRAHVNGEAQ
UniProt P9WPC3, whole entry partner: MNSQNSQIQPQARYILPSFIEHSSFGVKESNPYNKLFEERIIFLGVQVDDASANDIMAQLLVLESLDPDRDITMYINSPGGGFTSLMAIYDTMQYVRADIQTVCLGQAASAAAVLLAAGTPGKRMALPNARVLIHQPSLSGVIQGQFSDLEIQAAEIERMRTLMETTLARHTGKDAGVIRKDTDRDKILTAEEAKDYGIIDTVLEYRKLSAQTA
UniProt Q8IDJ8, 1-583: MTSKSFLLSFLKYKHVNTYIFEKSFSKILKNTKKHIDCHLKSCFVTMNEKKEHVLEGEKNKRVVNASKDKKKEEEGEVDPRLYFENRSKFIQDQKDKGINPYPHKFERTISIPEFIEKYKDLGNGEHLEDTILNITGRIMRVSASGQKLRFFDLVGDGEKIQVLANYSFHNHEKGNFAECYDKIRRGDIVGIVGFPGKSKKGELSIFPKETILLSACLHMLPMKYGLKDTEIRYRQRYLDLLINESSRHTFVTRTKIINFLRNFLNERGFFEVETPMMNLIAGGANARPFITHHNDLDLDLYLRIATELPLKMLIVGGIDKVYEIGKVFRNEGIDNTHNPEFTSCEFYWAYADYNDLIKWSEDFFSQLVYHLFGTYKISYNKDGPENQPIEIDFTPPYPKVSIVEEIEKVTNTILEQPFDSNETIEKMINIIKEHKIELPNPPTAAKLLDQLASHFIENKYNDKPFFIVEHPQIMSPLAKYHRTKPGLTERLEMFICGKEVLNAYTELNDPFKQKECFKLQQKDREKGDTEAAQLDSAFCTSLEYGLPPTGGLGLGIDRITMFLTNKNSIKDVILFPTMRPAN

The values are deposited in ChEMBL (CHEMBL3988442, “University of Dundee, Small-Polar-MMV Screening Library” (2021)).

A: 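Cell assay of Leishmania donovani living inside macrophages; the read-out is not stated. Compounds at 30 µM. Direction is inferred from retests: higher values go with stronger inhibition. About 69,000 compounds were tested under these conditions; 1.5% (about 1,000) showed 50% or more at least once.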
B: 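ClpP1P2, Mycobacterium tuberculosis (UniProt P9WPC5 and UniProt P9WPC3). Protease assay of ClpP1P2, read by the AMC dye that it sets free. Concentration: 50 µM. Direction is inferred from only a few compounds that gave an IC50; most scored high, so higher reads as stronger inhibition. Most other retested compounds had strongly negative values. About 69,000 compounds were tested under these conditions; 0.015% (about 10) showed 50% or more at least once.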
C: 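Assay of Toxoplasma gondii numbers, read through their beta-galactosidase reporter with a colour substrate. Tested at 10 µM. Higher reads as fewer parasites (inferred from which compounds were picked for retests). Of about 67,000 compounds tested this way, about 260 (0.38%) reached 50% or more in at least one test.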
D: 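Lysine-tRNA ligase, Plasmodium falciparum 3D7 (UniProt Q8IDJ8). Enzyme assay of the cytosolic lysyl-tRNA synthetase in 384-well plates, read by luminescence. Concentration: 30 µM. Higher reads as stronger inhibition, judged from the few compounds that gave an IC50. Of about 69,000 compounds tested this way, about 49 (0.071%) reached 50% or more in at least one test.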

The filed quantity is “Percent Effect” (%). The record does not define 0% and 100%; most values in the screen are far below 50% and negative numbers occur (in some assays of this library far below -100). The compounds are a random part of those screened. A dash means the value is not listed here; it may have been measured.

| Compound | A | B | C | D |
|---|---|---|---|---|
| `O=c1[nH]c(COc2cccc(F)c2)nc2c1CCNC2` | 13.23% | 1.166% | 2.011% | 3.874% |
| `Cc1cccc(C)c1OCCC(=O)N1CCC(c2nncn2C)CC1` | 9.931% | 2.288% | 2.118% | 9.402% |
| `O=C(Nc1ccccc1)C1CN(CC2CC2)CC12CCOCC2.O=C(O)C(F)(F)F` (stereo not drawn) | 52.69% | - | -1.603% | - |
| `CC(C)c1nc(C2CCCN2CCc2ccccn2)no1` (stereo not drawn) | 8.084% | -26.76% | -12.77% | 4.937% |
| `CN(C)C(=O)C1CCCN1CCCNC(=O)Cc1ccccc1F` (stereo not drawn) | 3.772% | 4.406% | -14.61% | 5.684% |
| `Cc1ccccc1C1(CN)CCOCC1` | 19.87% | -2.957% | 6.935% | 6.026% |
| `Cc1cc(CN(C)C(=O)C(c2ccccc2C)N(C)C)on1` (stereo not drawn) | 23.28% | -0.2499% | 4.137% | -0.08898% |
| `CN(CCCc1cnn(C)c1)C(=O)C1CCCN(C2CCCC2)C1` (stereo not drawn) | 10.43% | -4.026% | 2.382% | 5.672% |
| `COC(=O)NCC(=O)N1CCCC(c2ncc[nH]2)C1` (stereo not drawn) | -16.61% | -8.169% | -16.68% | 5.095% |
| `CCOc1ccccc1C(CC(=O)Nc1nc(C)cs1)NC(C)=O` (stereo not drawn) | -18.83% | -2.027% | -16.23% | 2.898% |
| `[H][C@@]12CCN(Cc3ccoc3)[C@]1([H])CC[C@H](C(=O)NCC1CC1)O2` | 15.09% | - | 3.243% | - |
| `CCn1nc(CC(C)C)cc1C(=O)NCCn1cccc1` | -26.86% | -3.818% | -4.711% | -2.31% |
| `Cc1ccc(CNC(=O)NCCCn2nc3ccccn3c2=O)s1` | 8.446% | 3.19% | 7.984% | -1.469% |
| `CCN(CC(F)(F)F)C(=O)C1CCCN(Cc2cscn2)C1` (stereo not drawn) | 10.32% | 10.81% | -3.461% | 2.482% |
| `COc1c(CNC2CCCc3ccccc32)c(C(C)C)nn1C` (stereo not drawn) | 31.3% | 7.235% | 5.062% | 0% |
| `Cc1ccc(CN2CC[C@H]3C[C@@H](c4nc(C5CC5)cs4)O[C@@H]3C2)o1` | - | -27.11% | - | 1.401% |
| `CCOCCN1CCN(Cc2nnc(-c3occc3C)o2)CC1CC` (stereo not drawn) | 14.59% | -10.36% | 14.95% | 3.961% |
| `COc1c(CNCc2cnn(C)c2)c(C(C)C)nn1C` | 9.883% | 11.21% | -12.56% | 2.462% |
| `Cc1nc2c(c(N3CCC(O)(CN4CCCC4)CC3)n1)CCNCC2` | -23.84% | -8.57% | 9.328% | 4.693% |
| `Cc1nc(C)n(CC2CCCN(c3ncnc4sccc34)C2)n1` (stereo not drawn) | -10.34% | 7.466% | 8.214% | -2.842% |
| `CNS(=O)(=O)CCN1CC(c2ccccc2)(c2ccccc2)CCC1=O` | -0.05061% | 1.233% | 11.28% | -0.3107% |
| `CC(=O)NCC(=O)N1CCC(c2cncc(Oc3cccnc3)n2)CC1` | 3.282% | 3.559% | -15.61% | 4.669% |
| `Cc1cnn(CC2CCCN2C(=O)Cn2nc(C)c(Cl)c2C)c1` (stereo not drawn) | -1.459% | -11.21% | 6.861% | 9.335% |
| `O=C(O)C(F)(F)F.[H][C@@]12COC[C@]1(CNC(=O)c1ccccc1)CN(CC1CCOCC1)C2` | 28.33% | - | -4.602% | - |
| `CC1c2ncc(Cn3cccn3)n2CCN1S(C)(=O)=O.O=C(O)C(F)(F)F` (stereo not drawn) | 16.34% | - | -4.231% | - |
| `CC(=O)NCC(=O)N1CCC(C2CCN(Cc3ccc(Cl)cc3)C2)CC1` (stereo not drawn) | 13.56% | -0.9992% | 7.268% | 1.642% |
| `CNS(=O)(=O)CCCN(C)Cc1cc(C)ccc1OC` | 5.162% | -12.45% | -1.78% | 1.212% |
| `COCCNc1cc(C2CCCNC2)ccn1.Cl` (stereo not drawn) | 33.72% | - | -16.87% | - |
| `Cc1ccnc(SCC(=O)Nc2csc3nc(=O)c(C)nn23)n1` | 30.99% | -4.373% | -0.1348% | -0.09192% |
| `CC(C)c1ocnc1C(=O)Nc1cccc(Cn2ccccc2=O)c1` | -1.493% | 21.58% | 46.94% | -1.398% |
| `O=C(CCO)N1C[C@H]2CN(c3ccccc3)C(=O)[C@H]2C1` | - | -2.588% | - | 2.598% |
| `NCc1ccnc(Oc2ccccc2)c1` | 38.38% | 13.56% | 7.987% | 6.823% |
| `Cc1n[nH]c(C)c1C1CCCN1C(=O)NCC(=O)NC(C)(C)C` (stereo not drawn) | 9.522% | -13.87% | -1.97% | 1.681% |
| `CC(C)Nc1cccc(CNC(=O)N2CCC[C@@H]2CO)c1` | -9.517% | -14.95% | - | 1.323% |

For reference, 3 entries once more:

| Compound | A | B | C | D |
|---|---|---|---|---|
| `NCc1ccnc(Oc2ccccc2)c1` | 38.38% | 13.56% | 7.987% | 6.823% |
| `O=C(CCO)N1C[C@H]2CN(c3ccccc3)C(=O)[C@H]2C1` | - | -2.588% | - | 2.598% |
| `CCOc1ccccc1C(CC(=O)Nc1nc(C)cs1)NC(C)=O` (stereo not drawn) | -18.83% | -2.027% | -16.23% | 2.898% |